Article doi:10.1101/594168

Assays:
[1] = system: Lsm1-7 complex + Pat1 317-754; assay: fluorescence polarization; details: unable to stimulate RNA binding, isotherm identical to L457A/E461K complex
[2] = target: T1, PatMC (Schizosaccharomyces pombe) (UniProt O42958); assay: fluorescence polarization; details: PatMC alone, bound weakly
T1 sequence (looked up, limits assumed): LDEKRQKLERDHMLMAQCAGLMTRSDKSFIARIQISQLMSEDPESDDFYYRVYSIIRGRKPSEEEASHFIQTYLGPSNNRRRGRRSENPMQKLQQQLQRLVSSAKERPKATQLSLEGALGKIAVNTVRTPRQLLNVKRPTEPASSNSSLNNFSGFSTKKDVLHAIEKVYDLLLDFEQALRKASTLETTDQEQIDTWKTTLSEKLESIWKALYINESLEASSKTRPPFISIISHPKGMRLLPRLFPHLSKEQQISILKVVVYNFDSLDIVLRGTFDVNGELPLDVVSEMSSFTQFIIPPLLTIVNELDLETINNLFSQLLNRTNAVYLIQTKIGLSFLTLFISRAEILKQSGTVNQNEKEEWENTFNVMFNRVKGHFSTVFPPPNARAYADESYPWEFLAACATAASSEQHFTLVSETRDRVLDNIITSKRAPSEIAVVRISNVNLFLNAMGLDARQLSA

AAAAAAAAAAAAAAA [oligoA rA15]: binds more weakly [1]; binds more weakly [2].

The comparison behind a weaker result is the experiment's own reference, which may not be listed here. For some assays here: Where a protein sequence is shown, tags need not be part of it. For some assays here: The exact form of at least one protein or probe is not confirmed.
